Results: patent US9475914B2, “Porous polymer monoliths, processes for preparation and use thereof” (UNIVERSITY OF TASMANIA, priority 2010, dated 2016)

Key:
[1] = Simultaneous quantification of fluconazole and propranolol from monolithic sorbent, whole blood; conditions: simultaneous analysis, whole rat blood
[2] = Inter-assay accuracy and precision, dried blood spots on poly(HEMA-co-EDMA) monolithic sorbent, LC-MS/MS; parameters: species or system rat; conditions: for Mean Calculated Concentration: whole rat blood, n=8
[3] = not given; remark: listed apart in the source
[4] = DPS, Overall inter-assay, nominal 20 ng/mL
[5] = DPS, Overall inter-assay, nominal 70 ng/mL
[6] = DPS, Overall inter-assay, nominal 500 ng/mL
[7] = DPS, Overall inter-assay, nominal 800 ng/mL

## OC(Cn1cncn1)(Cn1cncn1)c1ccc(F)cc1F [Fluconazole]
[1]; nominal 5 ng/mL
  Accuracy: 123%
  Mean Calculated Conc.: 6.16 ng/mL
[1]; nominal 20 ng/mL
  Accuracy: 93%
  Mean Calculated Conc.: 18.60 ng/mL
[1]; nominal 70 ng/mL
  Accuracy: 119%
  Mean Calculated Conc.: 83.38 ng/mL
[1]; nominal 500 ng/mL
  Accuracy: 100%
  Mean Calculated Conc.: 500.25 ng/mL
[2]; nominal 5 ng/mL
  Mean Calculated Concentration: 5.69 ng/mL
[2]; nominal 20 ng/mL
  Mean Calculated Concentration: 21.23 ng/mL
[2]; nominal 70 ng/mL
  Mean Calculated Concentration: 65.85 ng/mL
[2]; nominal 500 ng/mL
  Mean Calculated Concentration: 492.00 ng/mL
[2]; whole blood
  lower limit of quantification (LLOQ): 5 ng/mL
DBS, Batch 1, nominal 20 ng/mL, deviation from nominal
  Accuracy: 13
DBS, Batch 1, nominal 70 ng/mL, deviation from nominal
  Accuracy: 5
DBS, Batch 1, nominal 500 ng/mL, deviation from nominal
  Accuracy: 2
DBS, Batch 1, nominal 800 ng/mL, deviation from nominal
  Accuracy: 10
DBS, Batch 1 intra-assay, nominal 20 ng/mL, n=6
  Average concentration: 17.35 ng/mL
DBS, Batch 1 intra-assay, nominal 70 ng/mL, n=6
  Average concentration: 66.33 ng/mL
DBS, Batch 1 intra-assay, nominal 500 ng/mL, n=6
  Average concentration: 488.67 ng/mL
DBS, Batch 1 intra-assay, nominal 800 ng/mL, n=6
  Average concentration: 724.00 ng/mL
DBS, Batch 2, nominal 20 ng/mL, deviation from nominal
  Accuracy: 2
DBS, Batch 2, nominal 70 ng/mL, deviation from nominal
  Accuracy: 5
DBS, Batch 2, nominal 500 ng/mL, deviation from nominal
  Accuracy: 6
DBS, Batch 2, nominal 800 ng/mL, deviation from nominal
  Accuracy: 10
DBS, Batch 2 intra-assay, nominal 20 ng/mL, n=6
  Average concentration: 20.32 ng/mL
DBS, Batch 2 intra-assay, nominal 70 ng/mL, n=6
  Average concentration: 66.33 ng/mL
DBS, Batch 2 intra-assay, nominal 500 ng/mL, n=6
  Average concentration: 530.00 ng/mL
DBS, Batch 2 intra-assay, nominal 800 ng/mL, n=6
  Average concentration: 878.80 ng/mL
DBS, Batch 3, nominal 20 ng/mL, deviation from nominal
  Accuracy: 9
DBS, Batch 3, nominal 70 ng/mL, deviation from nominal
  Accuracy: 2
DBS, Batch 3, nominal 500 ng/mL, deviation from nominal
  Accuracy: 7
DBS, Batch 3, nominal 800 ng/mL, deviation from nominal
  Accuracy: 2
DBS, Batch 3 intra-assay, nominal 20 ng/mL, n=6
  Average concentration: 18.25 ng/mL
DBS, Batch 3 intra-assay, nominal 70 ng/mL, n=6
  Average concentration: 71.12 ng/mL
DBS, Batch 3 intra-assay, nominal 500 ng/mL, n=6
  Average concentration: 465.60 ng/mL
DBS, Batch 3 intra-assay, nominal 800 ng/mL, n=6
  Average concentration: 787.83 ng/mL
DBS, Overall inter-assay, nominal 20 ng/mL
  Average concentration: 18.25 ng/mL
DBS, Overall inter-assay, nominal 20 ng/mL, deviation from nominal
  Accuracy: 7
DBS, Overall inter-assay, nominal 70 ng/mL
  Average concentration: 71.12 ng/mL
DBS, Overall inter-assay, nominal 70 ng/mL, deviation from nominal
  Accuracy: 3
DBS, Overall inter-assay, nominal 500 ng/mL
  Average concentration: 465.60 ng/mL
DBS, Overall inter-assay, nominal 500 ng/mL, deviation from nominal
  Accuracy: 6
DBS, Overall inter-assay, nominal 800 ng/mL
  Average concentration: 803.21 ng/mL
DBS, Overall inter-assay, nominal 800 ng/mL, deviation from nominal
  Accuracy: 0
Dilution above HLQ, blood
  Accuracy: 26%
Dilution above HLQ, blood spiked 20000 ng/mL, diluted, n=3
  Average concentration: 1483 ng/mL
[3]; DPS, Batch 1, nominal 20 ng/mL
  Precision: 3
[3]; DPS, Batch 1, nominal 20 ng/mL, deviation from nominal
  Accuracy: 1
[3]; DPS, Batch 1, nominal 70 ng/mL
  Precision: 5
[3]; DPS, Batch 1, nominal 70 ng/mL, deviation from nominal
  Accuracy: 1
[3]; DPS, Batch 1, nominal 500 ng/mL
  Precision: 5
[3]; DPS, Batch 1, nominal 500 ng/mL, deviation from nominal
  Accuracy: 1
[3]; DPS, Batch 1, nominal 800 ng/mL
  Precision: 3
[3]; DPS, Batch 1, nominal 800 ng/mL, deviation from nominal
  Accuracy: 1
[3]; DPS, Batch 1 intra-assay, nominal 20 ng/mL, n=6
  Average concentration: 20.12 ng/mL
[3]; DPS, Batch 1 intra-assay, nominal 70 ng/mL, n=6
  Average concentration: 69.35 ng/mL
[3]; DPS, Batch 1 intra-assay, nominal 500 ng/mL, n=6
  Average concentration: 496.17 ng/mL
[3]; DPS, Batch 1 intra-assay, nominal 800 ng/mL, n=6
  Average concentration: 805.83 ng/mL
[3]; [4]
  Average concentration: 20.11 ng/mL
  Precision: 3
[3]; DPS, Overall inter-assay, nominal 20 ng/mL, deviation from nominal
  Accuracy: 1
[3]; [5]
  Average concentration: 68.2 ng/mL
  Precision: 5
[3]; DPS, Overall inter-assay, nominal 70 ng/mL, deviation from nominal
  Accuracy: 3
[3]; [6]
  Average concentration: 495.50 ng/mL
  Precision: 4
[3]; DPS, Overall inter-assay, nominal 500 ng/mL, deviation from nominal
  Accuracy: 1
[3]; [7]
  Average concentration: 810.833 ng/mL
  Precision: 2
[3]; DPS, Overall inter-assay, nominal 800 ng/mL, deviation from nominal
  Accuracy: 1
[3]; dilution above HLQ, plasma
  Accuracy: 32%
  Precision: 7%
[3]; dilution above HLQ, plasma spiked 20000 ng/mL, diluted, n=6
  Average concentration: 1360

## CC(C)NCC(O)COc1cccc2ccccc12 (centres unmarked) [Propranolol]
[1]; nominal 5 ng/mL
  Accuracy: 166%
  Mean Calculated Conc.: 8.30 ng/mL
[1]; nominal 20 ng/mL
  Accuracy: 89%
  Mean Calculated Conc.: 17.80 ng/mL
[1]; nominal 70 ng/mL
  Mean Calculated Conc.: 78.78 ng/mL
[1]; nominal 500 ng/mL
  Mean Calculated Conc.: 535.00 ng/mL

Like-named read-outs stand apart in the source and are kept apart here.
